Measured values from the M2OR odorant receptor database.
Where a chain is given by its changes, count along the chain named. The entries are a selection whose mix differs from that of the whole data set. Calls are pooled over several reports, among them a noisy single-well screen. The list shows a part of the results. Some of the results follow.

Chains of the proteins cited; added tags and fusions are not shown. A line that says so, or that is headed by a name, gives the form on record, which may keep a tag or linker.
OR5L1, as listed by the source: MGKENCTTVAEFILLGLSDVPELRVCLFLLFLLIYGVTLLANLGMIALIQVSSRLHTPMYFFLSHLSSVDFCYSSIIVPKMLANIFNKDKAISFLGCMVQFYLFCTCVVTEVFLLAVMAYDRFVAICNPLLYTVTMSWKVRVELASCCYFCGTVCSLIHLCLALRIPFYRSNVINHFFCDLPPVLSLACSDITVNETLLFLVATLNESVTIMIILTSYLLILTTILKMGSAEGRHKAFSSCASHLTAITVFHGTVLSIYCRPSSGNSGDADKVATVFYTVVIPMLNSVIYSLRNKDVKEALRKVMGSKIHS

Tests used:
Conditions in all cases: stereoisomer not certain
[1] = system: T1, OR5H1
T1 sequence (whole entry): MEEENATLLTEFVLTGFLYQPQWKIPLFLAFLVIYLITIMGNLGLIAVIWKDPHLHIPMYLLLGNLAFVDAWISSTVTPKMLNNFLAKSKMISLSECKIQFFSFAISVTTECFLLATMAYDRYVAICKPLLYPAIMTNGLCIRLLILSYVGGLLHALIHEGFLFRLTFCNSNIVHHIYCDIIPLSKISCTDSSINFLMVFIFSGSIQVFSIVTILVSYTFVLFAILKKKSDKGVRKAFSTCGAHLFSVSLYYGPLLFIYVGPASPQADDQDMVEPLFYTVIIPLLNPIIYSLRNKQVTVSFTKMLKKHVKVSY
Outline: (§1)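 Each entry records the cell line, G-protein, co-transfected protein and tags used. Methods varied with the source, often transient luciferase assays in mammalian cell lines. A receptor–molecule pair is called responsive (active) if the original authors judged its signal statistically different from baseline and non-responsive (inactive) otherwise.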

[2] = system: T2, OR5H2
T2 sequence (whole entry): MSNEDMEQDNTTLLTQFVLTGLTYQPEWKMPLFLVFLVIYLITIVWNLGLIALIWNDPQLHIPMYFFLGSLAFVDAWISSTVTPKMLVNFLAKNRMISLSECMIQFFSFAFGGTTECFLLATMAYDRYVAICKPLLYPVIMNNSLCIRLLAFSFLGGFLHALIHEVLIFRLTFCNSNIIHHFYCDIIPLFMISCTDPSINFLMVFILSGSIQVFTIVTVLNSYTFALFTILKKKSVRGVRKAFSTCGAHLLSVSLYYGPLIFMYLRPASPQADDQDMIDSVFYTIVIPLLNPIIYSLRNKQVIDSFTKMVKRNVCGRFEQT
Outline: as §1

[3] = system: T3, OR5H2; remark: listed apart in the source
T3 sequence (whole entry): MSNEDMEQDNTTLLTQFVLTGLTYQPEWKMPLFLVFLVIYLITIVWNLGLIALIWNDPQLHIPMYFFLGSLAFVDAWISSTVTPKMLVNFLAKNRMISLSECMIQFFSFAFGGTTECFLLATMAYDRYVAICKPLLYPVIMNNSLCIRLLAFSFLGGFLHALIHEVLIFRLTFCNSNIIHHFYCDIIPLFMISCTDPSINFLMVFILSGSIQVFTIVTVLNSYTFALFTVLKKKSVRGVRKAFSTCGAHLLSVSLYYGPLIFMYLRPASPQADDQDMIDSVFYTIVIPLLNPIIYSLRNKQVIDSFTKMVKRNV
Outline: as §1

[4] = system: T4, OR5H6
T4 sequence (whole entry): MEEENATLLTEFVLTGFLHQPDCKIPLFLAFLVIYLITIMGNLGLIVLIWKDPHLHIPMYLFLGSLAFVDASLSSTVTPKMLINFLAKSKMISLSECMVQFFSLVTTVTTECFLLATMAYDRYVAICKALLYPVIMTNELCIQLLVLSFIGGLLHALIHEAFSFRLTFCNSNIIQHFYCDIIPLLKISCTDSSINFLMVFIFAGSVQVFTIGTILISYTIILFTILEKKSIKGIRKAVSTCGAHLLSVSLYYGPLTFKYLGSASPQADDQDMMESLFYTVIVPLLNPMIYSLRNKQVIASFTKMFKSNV
Outline: as §1

[5] = system: T5, OR5H6; remark: listed apart in the source
T5 sequence (whole entry): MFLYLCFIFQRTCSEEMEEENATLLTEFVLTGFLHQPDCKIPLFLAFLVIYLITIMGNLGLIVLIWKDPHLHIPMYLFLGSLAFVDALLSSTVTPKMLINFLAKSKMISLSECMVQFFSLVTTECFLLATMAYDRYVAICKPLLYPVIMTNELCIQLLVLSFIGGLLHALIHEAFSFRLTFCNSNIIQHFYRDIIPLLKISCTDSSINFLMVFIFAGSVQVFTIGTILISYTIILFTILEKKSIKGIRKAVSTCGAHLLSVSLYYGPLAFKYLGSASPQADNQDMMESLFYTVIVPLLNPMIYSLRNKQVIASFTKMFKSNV
Outline: as §1

[6] = molecular target: T6, OR5I1 (Homo sapiens) (UniProt Q13606)
T6 sequence (whole entry): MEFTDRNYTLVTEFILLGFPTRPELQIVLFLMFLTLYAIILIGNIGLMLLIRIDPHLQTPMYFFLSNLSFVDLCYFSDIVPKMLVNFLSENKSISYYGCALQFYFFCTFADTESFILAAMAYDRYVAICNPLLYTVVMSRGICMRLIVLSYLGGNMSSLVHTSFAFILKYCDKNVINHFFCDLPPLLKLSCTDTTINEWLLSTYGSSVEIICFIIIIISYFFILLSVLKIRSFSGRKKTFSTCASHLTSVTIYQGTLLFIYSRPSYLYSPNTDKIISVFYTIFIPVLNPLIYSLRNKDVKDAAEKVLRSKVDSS
Outline: as §1

[7] = molecular target: T7, OR5J2 (Homo sapiens) (UniProt Q8NH18)
T7 sequence (whole entry): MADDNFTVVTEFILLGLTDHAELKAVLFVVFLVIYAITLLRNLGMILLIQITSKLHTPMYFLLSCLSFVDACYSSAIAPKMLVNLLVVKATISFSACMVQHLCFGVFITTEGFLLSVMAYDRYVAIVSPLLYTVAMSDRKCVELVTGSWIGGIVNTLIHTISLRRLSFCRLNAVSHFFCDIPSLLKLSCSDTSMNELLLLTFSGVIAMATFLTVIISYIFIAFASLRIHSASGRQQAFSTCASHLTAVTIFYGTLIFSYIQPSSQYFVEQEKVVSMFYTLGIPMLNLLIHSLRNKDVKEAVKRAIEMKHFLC
Outline: as §1

[8] = molecular target: T8, OR5K1 (Homo sapiens) (UniProt Q8NHB7)
T8 sequence (whole entry): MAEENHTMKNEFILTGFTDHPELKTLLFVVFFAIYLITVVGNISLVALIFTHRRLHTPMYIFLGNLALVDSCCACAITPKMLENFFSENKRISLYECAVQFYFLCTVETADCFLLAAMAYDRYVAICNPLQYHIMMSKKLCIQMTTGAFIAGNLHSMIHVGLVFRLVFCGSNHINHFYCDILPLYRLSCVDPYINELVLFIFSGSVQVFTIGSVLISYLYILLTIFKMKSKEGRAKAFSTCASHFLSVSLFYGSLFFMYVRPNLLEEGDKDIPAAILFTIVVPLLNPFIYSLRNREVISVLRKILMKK
Outline: as §1

[9] = molecular target: T9, OR5K2 (Homo sapiens) (UniProt Q8NHB8)
T9 sequence (whole entry): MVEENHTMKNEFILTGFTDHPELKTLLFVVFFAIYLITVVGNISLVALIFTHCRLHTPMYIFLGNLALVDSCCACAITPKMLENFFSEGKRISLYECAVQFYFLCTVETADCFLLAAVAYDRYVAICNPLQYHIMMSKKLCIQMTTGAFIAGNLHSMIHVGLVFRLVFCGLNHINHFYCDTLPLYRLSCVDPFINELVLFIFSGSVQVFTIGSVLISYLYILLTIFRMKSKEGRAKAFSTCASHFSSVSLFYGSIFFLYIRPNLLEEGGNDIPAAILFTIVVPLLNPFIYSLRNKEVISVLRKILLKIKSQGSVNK
Outline: as §1

[10] = molecular target: OR5K3 (Homo sapiens) (UniProt A6NET4)
Outline: as §1

[11] = system: T10, OR5K3
T10 sequence (whole entry): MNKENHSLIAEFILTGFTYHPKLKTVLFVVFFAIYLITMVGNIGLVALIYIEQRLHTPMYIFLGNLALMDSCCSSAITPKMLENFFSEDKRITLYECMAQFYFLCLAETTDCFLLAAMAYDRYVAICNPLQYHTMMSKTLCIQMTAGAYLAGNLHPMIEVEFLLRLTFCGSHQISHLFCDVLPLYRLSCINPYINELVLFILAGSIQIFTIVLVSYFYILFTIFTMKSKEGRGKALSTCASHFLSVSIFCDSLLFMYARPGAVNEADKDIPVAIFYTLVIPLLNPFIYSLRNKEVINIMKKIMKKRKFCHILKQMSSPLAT
Outline: as §1

[12] = molecular target: OR5K4 (Homo sapiens) (UniProt A6NMS3)
Outline: as §1

[13] = system: T11, OR5K4
T11 sequence (whole entry): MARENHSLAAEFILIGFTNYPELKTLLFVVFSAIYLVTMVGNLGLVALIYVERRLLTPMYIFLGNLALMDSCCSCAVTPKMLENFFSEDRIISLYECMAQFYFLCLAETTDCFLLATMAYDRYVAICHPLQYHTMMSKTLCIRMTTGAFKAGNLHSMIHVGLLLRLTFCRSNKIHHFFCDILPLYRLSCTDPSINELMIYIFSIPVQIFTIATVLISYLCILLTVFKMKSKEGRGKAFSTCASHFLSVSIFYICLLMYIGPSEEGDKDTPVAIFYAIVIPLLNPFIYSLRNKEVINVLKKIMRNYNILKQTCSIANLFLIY
Outline: as §1

[14] = molecular target: T12, OR5L1 (Homo sapiens) (UniProt Q8NGL2)
T12 sequence (whole entry): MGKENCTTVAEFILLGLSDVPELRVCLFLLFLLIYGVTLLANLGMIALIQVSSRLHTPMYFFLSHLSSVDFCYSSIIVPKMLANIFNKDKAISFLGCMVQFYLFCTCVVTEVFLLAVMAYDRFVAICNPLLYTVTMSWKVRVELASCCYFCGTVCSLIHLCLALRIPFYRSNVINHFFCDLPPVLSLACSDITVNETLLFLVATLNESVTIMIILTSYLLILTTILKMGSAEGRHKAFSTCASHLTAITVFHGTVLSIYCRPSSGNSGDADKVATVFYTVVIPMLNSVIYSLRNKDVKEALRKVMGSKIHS
Outline: as §1

[15] = system: T13, OR5L1
T13 sequence (whole entry): T12 sequence (whole entry) with T240S
Outline: as §1

Measured: odorant receptor agonist call

C=CCc1ccc(OC)c(OC)c1
active: [8]
inactive: all other assays above

CCC=CCCO
not listed: [10] | [12]
inactive: all other assays above

CC(C)CC(=O)O
active: [13]
not listed: [10] | [12]
inactive: all other assays above

CCC1(O)C2(C)CCC(C2)C1(C)C (centres undefined)
not listed: [10] | [12]
inactive: all other assays above

O=C1CCCCC1
not listed: [7] | [10] | [12] | [13] | [15]
inactive: all other assays above

CC1=NC(C)SC1C (centres undefined)
active: [8]
not listed: [7] | [10] | [12] | [13] | [15]
inactive: all other assays above

CC1COCc2cc3c(cc21)C(C)(C)C(C)C3(C)C (centres undefined)
inactive: [6] | [7] | [8] | [15]
not listed: [10] | [12]
active: all other assays above

C=C(C)C1CCC2=CC(=O)CC(C)C2(C)C1 (centres undefined)
inactive: [7] | [15]
active: [13]

COc1cc(C)ccc1O
not listed: [10] | [12]
inactive: all other assays above

CC12C=CCC1C1CCC3=CC(=O)CCC3(C)C1CC2 (centres undefined)
active: [8]
not listed: [10] | [12]
inactive: all other assays above

CC(=O)C(C)=O
not listed: [10] | [12]
inactive: all other assays above

CC=Cc1ccc(O)c(OC)c1
active: [7] | [13] | [15]
not listed: [8] | [10] | [12]
inactive: all other assays above

CCCCCC(C)=O
not listed: [7] | [10] | [12] | [13] | [15]
inactive: all other assays above

CCCCCOC(C)=O
not listed: [10] | [12]
inactive: all other assays above
